The values below come from paper PMC7819943, “Rice protein-binding microarrays: a tool to detect cis-acting elements near promoter regions in rice”.

The list shows a part of the results.

For the test, the target named is T1, OsSMF1 (Oryza sativa, UniProt Q6ZLB0 1-436).
T1 sequence: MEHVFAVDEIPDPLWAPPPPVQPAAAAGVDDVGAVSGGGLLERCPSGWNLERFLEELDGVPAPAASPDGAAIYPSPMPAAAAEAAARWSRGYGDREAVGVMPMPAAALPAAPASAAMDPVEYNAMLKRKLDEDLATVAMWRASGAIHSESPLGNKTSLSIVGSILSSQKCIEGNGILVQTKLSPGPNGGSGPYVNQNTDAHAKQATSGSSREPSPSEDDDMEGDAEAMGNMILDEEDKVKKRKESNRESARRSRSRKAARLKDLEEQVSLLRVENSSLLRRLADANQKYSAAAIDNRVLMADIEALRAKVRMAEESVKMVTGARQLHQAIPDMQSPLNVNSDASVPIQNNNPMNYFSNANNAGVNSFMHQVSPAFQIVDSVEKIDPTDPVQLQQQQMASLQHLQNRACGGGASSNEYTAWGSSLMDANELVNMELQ
The experiment in a line: protein-binding microarray (RPBM); PBS, 2% BSA, 51.3 ng/ul salmon testes DNA, 50 uM zinc acetate, 200 nM TF, 25 C, 1 h; high values mean tight binding. To be noted: protein: recombinant; tags: N-terminal polyhistidine and DsRed monomer fusion (pET32a); chain copies: 2; label: CyDye5-dUTP incorporated in the synthesized complementary strand; 3' TTTTT single-stranded linker to array surface; dsDNA, one strand shown. The method, boiled down: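 Ni–NTA purification followed expression in E. coli BL21-CodonPlus of transcription factors fused N-terminally to a polyhistidine tag and DsRed. At 200 nM in PBS with 2% BSA, salmon testes DNA and 50 µM zinc acetate, the protein was incubated for 1 h at 25 °C with a custom Agilent array that had been primer-extended with Cy5-dUTP and blocked with 2% BSA. After washing, the array was read on an Axon 4000B scanner. The binding signal is per-feature fluorescence intensity in arbitrary units.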
For the sequence “GGTTCGAGCAGATTTGGTCCAGCCCAATTTCAGGGCACAACGGAGTCACCTAGTGCAG”, the binding signal was 3620 fluorescence intensity (a.u.).
As to “ACCATGTGCCACCTCCCACTTGGTATGCTCCATGCTCGTCCGGAGTCACCTAGTGCAG”, the binding signal was 3230 fluorescence intensity (a.u.).
As to “TTTCGTGTGCTACCTCAACGCGTCATAGTGTACAACACAACGGAGTCACCTAGTGCAG”, the binding signal is 4390 fluorescence intensity (a.u.).
As for “GTCCCATCTCGACCGTCCACGTGTGGCCCATCCGTGAGCTCGGAGTCACCTAGTGCAG”, the figure is 4990 fluorescence intensity (a.u.).
As to “TGCATGTTGCATGGCAGTCACATTCCACATCACATGCTTCCGGAGTCACCTAGTGCAG”, the binding signal was 7720 fluorescence intensity (a.u.).
Regarding “CCCCAACTGAAGAACAATACGATATACTGTGATTTGAACCCGGAGTCACCTAGTGCAG”, the binding signal is 3720 fluorescence intensity (a.u.).
As for “ACTACTACGAAACAGTCATCTGTACAAGGAGCTATGTCAGCGGAGTCACCTAGTGCAG”, the figure is 6160 fluorescence intensity (a.u.).
As for “TGAAAATCGCGAGACAAATCTTTTGAGCCTAATTAGTCCCCGGAGTCACCTAGTGCAG”, the figure is 29000 fluorescence intensity (a.u.); as for “AAAGGATAGTTTCGCTAACGTGATGTCTATGTGACGTGTTCGGAGTCACCTAGTGCAG”, 14200 fluorescence intensity (a.u.); as for “TTGTCAAGCGCGCGACCGTGACACGGCTGCCTGGGCGGTCCGGAGTCACCTAGTGCAG”, 3180 fluorescence intensity (a.u.).
As for “TGGCTATCAATTCTAGCTAGAATGACATCAGCTGCATGCTCGGAGTCACCTAGTGCAG”, the figure is 7710 fluorescence intensity (a.u.); as for “GACCTGTGACAGTGTTACTGCCACTGCTGCACTGCACACACGGAGTCACCTAGTGCAG”, 4150 fluorescence intensity (a.u.).
For the sequence “TATTATATTCACTTTGGTGTATGGCCAAGAACTACAGACTCGGAGTCACCTAGTGCAG”, the binding signal was 27600 fluorescence intensity (a.u.).
The figure for “ATGTGACTACCACCTCTAAATTTATCTATTTTATTCACTCCGGAGTCACCTAGTGCAG” is 18600 fluorescence intensity (a.u.); for “CAGTGCTAGGGAAGCGACCAATGATGGATAGTGGGAGGCACGGAGTCACCTAGTGCAG” it is 45600 fluorescence intensity (a.u.); for “TATCGATTCCAGCCAATGATGACACTATGACTTCAATTCGCGGAGTCACCTAGTGCAG” it is 3490 fluorescence intensity (a.u.).
As for “CGATAGCGGGAACAGTTGATTATGGTGCGGTACAAATTTCCGGAGTCACCTAGTGCAG”, the figure is 3380 fluorescence intensity (a.u.).
As for “CCACCTGTCGCACTGTACATCGCCACATGTGTATGCCAGCCGGAGTCACCTAGTGCAG”, the figure is 6070 fluorescence intensity (a.u.).
With “CCACTTGGCCATTTCCCATCTGCCTCCTGGAGCTTTAGCTCGGAGTCACCTAGTGCAG”, the binding signal is 3260 fluorescence intensity (a.u.).
The figure for “GTTAGACCGGTTGCTAGTCCCGGTAAGACCGCAGATATAACGGAGTCACCTAGTGCAG” is 30600 fluorescence intensity (a.u.); for “TCCGGCTCTTCATCCTACGTGGAATGAGATAGGGGAACGCCGGAGTCACCTAGTGCAG” it is 4680 fluorescence intensity (a.u.).
As to “TCAATACCAATGGGCTGGGCTACAGGTGAGCTGGCCATCCCGGAGTCACCTAGTGCAG”, the binding signal was 3360 fluorescence intensity (a.u.).
For the sequence “GAGAAGAGGGGAAAGAGAGGGGTGACGTGGACACCCTGACCGGAGTCACCTAGTGCAG”, the binding signal is 21800 fluorescence intensity (a.u.).
As for “TCTCCTCATCATCCGAGTCGTCATCATCATCGTCGTCGTCCGGAGTCACCTAGTGCAG”, the figure is 7460 fluorescence intensity (a.u.); as for “GTTTTGTTCCCTCGCATTGCGTCGAGTCATTGGGATTGATCGGAGTCACCTAGTGCAG”, 4750 fluorescence intensity (a.u.); as for “GAGATGTGGAGGGCCCACGTGTCAGGGACACCCAACGGGACGGAGTCACCTAGTGCAG”, 4180 fluorescence intensity (a.u.).
As for “TCTCCTCTTCTCGCTTCGCCTTCTCCTCTCCTTGTCCTTGCGGAGTCACCTAGTGCAG”, the binding signal is 3310 fluorescence intensity (a.u.).
The figure for “CGGCGGCGGCGTCATCGTCCTCGCCGCCCCTTATCCGGTCCGGAGTCACCTAGTGCAG” is 3320 fluorescence intensity (a.u.); for “AGCTTTCCAAAAGACCACACGATGTGTCACCAAACGTCAGCGGAGTCACCTAGTGCAG” it is 7570 fluorescence intensity (a.u.).
As for “TATGTCCTACGTCAGGATCATAAAACCTCTGAAGCAATGACGGAGTCACCTAGTGCAG”, the figure is 5390 fluorescence intensity (a.u.); as for “AAGCGCGCGCCTCGCCACCTCACCCGAAGAAATTCCCCACCGGAGTCACCTAGTGCAG”, 4140 fluorescence intensity (a.u.).
As for “TGAAAGGGGTTGATGTGTGGTGAAGGGTAGGTAATTTGTACGGAGTCACCTAGTGCAG”, the figure is 3860 fluorescence intensity (a.u.); as for “AGGCATTATTGCTGCCGCTTGCCGTTGCCGCAGTACTCAGCGGAGTCACCTAGTGCAG”, 19300 fluorescence intensity (a.u.).
“CGGCTCCGCCGCACTTGCTCGGCCGTCCACGCCGGCACGGCGGAGTCACCTAGTGCAG”: the binding signal was 3640 fluorescence intensity (a.u.).
The figure for “ATATCATATCGAAAGAAAGATGTTGTCCACCGCAGCTCCCCGGAGTCACCTAGTGCAG” is 3410 fluorescence intensity (a.u.); for “TGAACAAGGTTGATGTCAAACTTTTATAACTTTAATCATTCGGAGTCACCTAGTGCAG” it is 7100 fluorescence intensity (a.u.).
As for “GGATCTAAATCCGCCACGTGTCAACCTAAGCGATAGGAAACGGAGTCACCTAGTGCAG”, the figure is 14800 fluorescence intensity (a.u.).
As for “GTCAAGGTGCATATGGAACAGTTTATAAGGTAAGTTGAGGCGGAGTCACCTAGTGCAG”, the figure is 3190 fluorescence intensity (a.u.).
